Measurements published in PubChem BioAssay AID1117319 (Southern Research Institute, 2015).
The whole screen tested about 260,000 compounds, of which about 1,500 (0.58%) were called active.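 The calls were made as follows: active = inhibition above a set limit at one or more doses, reproduced on every date tested; inconclusive = results disagree between test dates, or hit never tested in dose response; inactive = the rest.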 The inconclusive results got no clear call from the source.

Chains of the proteins cited; added tags and fusions are not shown. Lines headed by an entry give the natural chain unless they say otherwise; changes in a name come on top.
UniProt P69720: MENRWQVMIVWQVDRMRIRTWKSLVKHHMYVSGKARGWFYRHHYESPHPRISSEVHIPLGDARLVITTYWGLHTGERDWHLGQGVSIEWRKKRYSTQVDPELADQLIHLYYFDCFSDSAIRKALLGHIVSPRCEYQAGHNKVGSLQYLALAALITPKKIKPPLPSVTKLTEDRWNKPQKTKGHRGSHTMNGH
UniProt P69721: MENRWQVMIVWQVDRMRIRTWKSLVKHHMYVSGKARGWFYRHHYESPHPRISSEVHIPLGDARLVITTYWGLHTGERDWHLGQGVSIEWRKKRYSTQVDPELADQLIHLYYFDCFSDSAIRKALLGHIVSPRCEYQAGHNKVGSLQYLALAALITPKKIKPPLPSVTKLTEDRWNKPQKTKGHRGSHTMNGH
UniProt P69722: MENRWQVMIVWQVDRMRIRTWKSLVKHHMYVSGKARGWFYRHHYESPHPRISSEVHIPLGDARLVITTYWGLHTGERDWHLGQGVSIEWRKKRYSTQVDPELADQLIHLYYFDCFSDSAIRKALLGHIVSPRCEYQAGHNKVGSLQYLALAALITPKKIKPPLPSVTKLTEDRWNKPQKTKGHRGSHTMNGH
UniProt P69723: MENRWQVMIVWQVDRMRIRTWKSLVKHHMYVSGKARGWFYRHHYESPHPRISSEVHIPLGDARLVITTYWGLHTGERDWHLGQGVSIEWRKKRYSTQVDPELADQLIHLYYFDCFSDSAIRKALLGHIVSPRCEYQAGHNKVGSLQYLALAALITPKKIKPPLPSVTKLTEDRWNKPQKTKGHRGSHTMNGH
UniProt Q9HC16: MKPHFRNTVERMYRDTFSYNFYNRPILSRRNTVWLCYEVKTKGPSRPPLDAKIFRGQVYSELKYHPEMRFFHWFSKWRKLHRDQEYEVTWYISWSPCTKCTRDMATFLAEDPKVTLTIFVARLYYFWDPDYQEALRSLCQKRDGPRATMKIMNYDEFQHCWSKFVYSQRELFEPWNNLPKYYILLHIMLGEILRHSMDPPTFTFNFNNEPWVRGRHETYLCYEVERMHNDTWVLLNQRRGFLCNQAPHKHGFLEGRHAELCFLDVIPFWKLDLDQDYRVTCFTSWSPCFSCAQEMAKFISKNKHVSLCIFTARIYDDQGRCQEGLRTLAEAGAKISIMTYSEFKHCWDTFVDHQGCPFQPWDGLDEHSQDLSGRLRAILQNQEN

target: Virion infectivity factor (Human immunodeficiency virus type 1 group M subtype B (isolate BH10)) + Virion infectivity factor (Human immunodeficiency virus type 1 group M subtype B (isolate BRU/LAI)) + Virion infectivity factor (Human immunodeficiency virus type 1 group M subtype B (isolate PCV12)) + Virion infectivity factor (Human immunodeficiency virus type 1 group M subtype B (isolate HXB2)) + DNA dC->dU-editing enzyme APOBEC-3G (Homo sapiens) (UniProt P69720+P69721+P69722+P69723+Q9HC16); experiment: inhibitors of Vif binding to APOBEC3G peptide, primary screen, biochemical, TR-FRET, GST-Vif 1-94, biotin-A3G peptide, dose response retest (AID 1117319); conditions: hits give high values;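 also: Vif residues 1-94 fused to GST binding biotinylated APOBEC3G peptide 110-148; 0% = full assay without inhibitor and 100% = GST in place of GST-Vif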

Compound	inhibition
Cc1ccccc1N/N=C/c1sc(=O)n(Cc2cccc(C(=O)O)c2)c1Cl	inconclusive: 49.2%
Cc1cc(C)cc(-n2cccc2/C=C2/C(=N)N3C(=NC2=O)SN=C3S(C)(=O)=O)c1	inconclusive: 42.2%
